Data published in paper PMC4409726, “Characterization of chromosomal and megaplasmid partitioning loci in Thermus thermophilus HB27”.
For at least one entry, the source does not settle the construct or the ends of the probe. The comparison behind a weaker result is the experiment's own reference, which may not be listed here. Protein sequences can lack the tags named with them. At least one verdict was read from the data and is not stated in words by the source.

Tests used:
[1] = target: T1, ParBc (Thermus thermophilus HB27) (UniProt Q72H91); test: competition with a labelled probe; details: 50 mM KCl, 10 mM Tris-HCl pH 7.0, 1 mM EDTA, 1 mM DTT, 4% glycerol, 0.02 ug/ul poly(dI-dC), 25 ul, 15 pmol FAM probe, 0 or 200 pmol ParB (competition), 25 C 30 min, recombinant protein
T1 sequence (looked up, limits assumed): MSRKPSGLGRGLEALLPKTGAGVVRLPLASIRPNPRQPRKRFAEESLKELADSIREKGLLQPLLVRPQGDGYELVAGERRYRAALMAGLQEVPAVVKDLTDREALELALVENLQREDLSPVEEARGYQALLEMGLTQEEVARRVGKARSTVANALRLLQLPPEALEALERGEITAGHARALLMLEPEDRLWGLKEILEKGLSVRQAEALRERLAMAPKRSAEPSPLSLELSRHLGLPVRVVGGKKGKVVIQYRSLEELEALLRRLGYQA

[2] = target: T2, ParBm (Thermus thermophilus HB27) (UniProt Q746H2); test: competition with a labelled probe; details: 50 mM KCl, 10 mM Tris-HCl pH 7.0, 1 mM EDTA, 1 mM DTT, 4% glycerol, 0.02 ug/ul poly(dI-dC), 25 ul, 15 pmol FAM probe, 0 or 200 pmol ParB (competition), 25 C 30 min, recombinant protein
T2 sequence (looked up, limits assumed): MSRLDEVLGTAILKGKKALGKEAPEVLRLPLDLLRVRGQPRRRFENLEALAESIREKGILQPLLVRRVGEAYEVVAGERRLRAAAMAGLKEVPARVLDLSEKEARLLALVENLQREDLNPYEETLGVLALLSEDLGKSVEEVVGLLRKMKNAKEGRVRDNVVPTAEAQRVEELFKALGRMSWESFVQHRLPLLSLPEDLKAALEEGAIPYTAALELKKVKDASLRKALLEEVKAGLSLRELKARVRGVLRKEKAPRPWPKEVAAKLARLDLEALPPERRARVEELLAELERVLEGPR

Sequence	binding result ([1]; unlabeled competitor vs FAM-WT parSc, competes much less than WT)	binding result ([2]; unlabeled competitor vs FAM-WT parSc, competes even better than WT parSc, nonspecific)	binding result ([1]; unlabeled competitor vs FAM-WT parSm, competes even better than WT parSm, nonspecific)	binding result ([2]; unlabeled competitor vs FAM-WT parSm, competes much less than WT)
CGTGCCCAGGGAGACCTCAGGCGCC (double strand) [Mu parSc 25-bp competitor]	binds more weakly	binds		
GCTGTGTGCAGGCCTTCA (double strand) [Mu parSm 18-bp competitor]			binds	binds more weakly
